# Laboratory results: PubChem BioAssay AID1688 (National Center for Advancing Translational Sciences (NCATS), 2009)
# The whole screen tested about 220,000 compounds, of which about 2,400 (1.1%) were called active. Inconclusive means that the source gave no clear call. Such entries were picked first, then a sample of the others. Calls follow the shape of the dose curve; as a rule, active = well fitted inhibition curve with a large enough effect; inconclusive = small, poorly fitted or top-dose-only effect, or effect the other way; inactive = no such curve, though single readings can be large or run the other way. Where the call is inconclusive, the potency comes from a doubtful curve fit.
# Assay: qHTS Multiplex Assay to Identify Dual Action Probes in a Cell Model of Huntington: Aggregate Formation (GFP); also: nearly all actives have a fitted effect of over 60% in size
# Conditions: PC12 HttQ103-GFP aggregates, Acumen cytometry, 40 h; activity change, negative = inhibition: at 46.1 µM (top of the series) unless noted
# Procedure, shortened: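 Compounds (qHTS titration) were added to PC12 cells expressing an ecdysone-driven HTT exon 1 Q103–GFP fusion after induction with 100 nM tebufenozide. Aggregate formation was measured as GFP objects in cell lysates.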
# % is scaled to controls: 0 for no effect and ±100 for the full control effect; potency is read from the fitted curve at half-maximal effect.
Structure (SMILES),Potency,"activity change, negative = inhibition"
Cc1cccc2c(C(=O)O)cc(-c3cccnc3)nc12,"inconclusive: 3.98 µM [activator, partial curve]",
O=C(CSc1nnnn1-c1ccccc1)Nc1ncc(Cc2cc(Cl)ccc2Cl)s1,"inconclusive: 31.6 µM [inhibitor, single point]",
CN(C)/C=C/C(=O)/C=C/c1ccc(Cl)cc1,"inconclusive: 10 µM [activator, partial curve]",
CCOc1ccc2nc(NC(=O)c3cnccn3)sc2c1,,inactive: 0.776%
CCC(=O)NC(=S)NNC(=O)c1ccc(OC)cc1,"inconclusive: 10 µM [inhibitor, partial curve]",
O=C(Cc1cccs1)NCc1ccncc1,,inactive: -13.2%
CCOc1ccc(S(=O)(=O)NCc2ccccc2Cl)cc1C(N)=O,"inconclusive: 10 µM [inhibitor, single point]",
O=C(Nc1nc2ccc(S(=O)(=O)N3CCCCC3)cc2s1)c1ccncc1,active: 3.55 µM,
Cc1cc(C)n2nc(SCC(=O)NC(=O)NCc3ccco3)nc2n1,"inconclusive: 3.98 µM [inhibitor, single point]",
O=C(/C=C/c1ccco1)Nc1ccc(N2CCCC2)cc1,,inactive: 25.3%
O=C(CCSc1ccccc1)NCc1cccnc1,"inconclusive: 35.5 µM [activator, partial curve]",
COc1ccc2c(c1)[nH]c1c(N3CCSCC3)ncnc12,,inactive: -16.9% [at 9.22 µM]
Cn1nc(C(F)(F)F)c(/C=N/OC(=O)c2ccccc2Cl)c1SCc1ccc(Cl)cc1,"inconclusive: 35.5 µM [inhibitor, single point]",
OCc1ccc(O)c2ncccc12,active: 10 µM,
Cc1c(NC(=O)C(C)OC(=O)c2sc3ccccc3c2Cl)c(=O)n(-c2ccccc2)n1C (configuration not stated),"inconclusive: 5.01 µM [inhibitor, single point]",
COc1ccc(C2(CNC(=O)c3ccc(OCC(C)C)cc3)CCOCC2)cc1,"inconclusive: 5.62 µM [inhibitor, single point]",
C#CCSc1nnc(-c2c[nH]c3ccccc23)n1C,"inconclusive: 1.26 µM [activator, single point]",
O=C(c1cccs1)N1N=C(c2ccccc2)CC1c1ccccc1 (configuration not stated),"inconclusive: 11.2 µM [inhibitor, partial curve]",
CCN(CC)c1ccc(/C=N/N=C(N)N)c(O)c1,active: 0.708 µM,
Cc1cc2ccccc2n2c(SCC(=O)N3CCc4ccccc4C3)nnc12,"inconclusive: 3.16 µM [activator, single point]",
O=C(O)c1ccc(/C=N/Nc2ccc(C(F)(F)F)cn2)cc1,"inconclusive: 14.1 µM [activator, partial curve, poor fit]",
CCC1(C(=O)O)NC(c2cc(OC)ccc2O)C2C(=O)N(Cc3ccccc3)C(=O)C21 (configuration not stated),,inactive: 9.31%
Cc1cc(C)n(CCc2nc(-c3ccc(C)o3)cs2)n1,,inactive: 1.84%
CN(C)S(=O)(=O)c1ccc(Oc2ccc(S(=O)(=O)N(C)C)cc2)cc1,"inconclusive: 7.08 µM [inhibitor, partial curve]",

Structure (SMILES),Potency,"activity change, negative = inhibition"
Cc1ccc(N2C(=O)CCSC23C(=O)Nc2ccccc23)cc1 (configuration not stated),"inconclusive: 4.47 µM [activator, full curve]",
COc1ccc(OC)c(C(=O)CN2CCN(S(=O)(=O)c3ccc(Br)cc3)CC2)c1,"inconclusive: 15.8 µM [activator, partial curve]",
Cc1ccc(NS(=O)(=O)c2ccc(NS(=O)(=O)c3cccs3)cc2)cc1,"inconclusive: 7.08 µM [activator, full curve, poor fit]",
Cc1cc(C)c2oc(C(=O)N(Cc3cccs3)C3CCS(=O)(=O)C3)cc(=O)c2c1 (configuration not stated),,inactive: -5.51% [at 9.22 µM]
CC(C)(C)c1ccc(-c2cc(C(=O)NNC(=O)Nc3ccccc3)c3ccccc3n2)cc1,"inconclusive: 31.6 µM [inhibitor, single point]",
CCc1cc2c(NCC3CCCO3)ncnc2s1 (configuration not stated),"inconclusive: 22.4 µM [inhibitor, single point]",
COc1cccc(S(=O)(=O)NCc2ccc(C(=O)NCc3ccco3)cc2)c1,"inconclusive: 0.631 µM [activator, partial curve]",
N#C/C(=C/c1ccc(F)cc1)C(N)=S,"inconclusive: 35.5 µM [inhibitor, single point]",
C[C@H]1c2cccc(O)c2C(O)=C2C(=O)[C@]3(O)C(O)=C(C(N)=O)C(=O)[C@@H](N(C)C)[C@@H]3[C@@H](O)[C@@H]21,,inactive: 7.74% [at 9.22 µM]
CCN1/C(=C/C(C)=O)Sc2ccc(OC)cc21,"inconclusive: 0.501 µM [activator, full curve, poor fit]",
CCOc1ccc(S(=O)(=O)Nc2ccc(Cl)cn2)c(C)c1C,"inconclusive: 35.5 µM [inhibitor, single point]",
O=C(COc1ccc(S(=O)(=O)NC2CCCCC2)cc1)NC1CCCCC1,"inconclusive: 35.5 µM [inhibitor, single point]",
O=C(Cc1c(Cl)cccc1Cl)NCCc1ccc(Cl)cc1,,inactive: -6.24%
O=C(NCCCc1ccccc1)c1cnc2n(c1=O)CCS2,"inconclusive: 1.58 µM [inhibitor, full curve, poor fit]",
O=C(CCc1ccc(S(=O)(=O)NCCc2ccccc2)cc1)NCc1ccc2c(c1)OCO2,,inactive: -3.16%
Cc1ccc(C(=O)c2cc([N+](=O)[O-])ccc2N2CCN(C)CC2)cc1,,inactive: 7.52%
Nc1cccc(Nc2nc(OC(C(F)(F)F)C(F)(F)F)nc(OC(C(F)(F)F)C(F)(F)F)n2)c1,"inconclusive: 20 µM [inhibitor, single point]",
CCOC(=O)c1c(C)[nH]c(-c2csc(N)n2)c1C,"inconclusive: 35.5 µM [activator, single point]",
Cc1ccc(-c2[nH]ncc2/C=C(\C#N)C(=O)NC2CCCCC2)cc1,"inconclusive: 11.2 µM [inhibitor, single point]",
O=C(O)c1ccccc1N/N=C/c1c(Sc2nnnn2-c2ccccc2)nc2ccccn2c1=O,,inactive: -22.9% [at 9.22 µM]
CCOCCCNC(=O)C(NC(=O)c1ccc2c(c1)OCO2)c1ccccc1 (configuration not stated),,inactive: 19.7%
O=C(CN1CCN(c2ccccc2)CC1)Nc1ccc(OCc2ccccc2)cc1,"inconclusive: 25.1 µM [inhibitor, single point]",
COc1ccc(NC(=O)c2cncc(Br)c2)c(S(=O)(=O)N2CCOCC2)c1,"inconclusive: 20 µM [inhibitor, single point]",
CCOC(=O)c1oc2ccc(S(=O)(=O)n3nc(-c4ccccc4)cc3N)cc2c1C,active: 10 µM,

Structure (SMILES),Potency,"activity change, negative = inhibition"
CC1=C(C(N)=O)C(c2ccc(Cl)cc2Cl)n2ncnc2N1 (configuration not stated),,inactive: 2.82%
Cc1cc(C)nc(N2CCC(C(=O)N3CCN(c4cc(Cl)ccc4C)CC3)CC2)n1,"inconclusive: 35.5 µM [inhibitor, single point]",
CN(C)S(=O)(=O)c1cccc(C(=O)Nc2cc(Cl)cc(Cl)c2)c1,"inconclusive: 35.5 µM [inhibitor, single point]",
CC1=NN(c2ccccc2)C(=O)/C1=C/N(C)C,,inactive: -8.8% [at 9.22 µM]
COC(=O)c1cccc(NC(=O)c2ccco2)c1,"inconclusive: 1 µM [activator, single point]",
NNC(=O)c1ccc(COc2ccccc2)cc1,,inactive: -13.5%
Cc1cccc(N2CCN(C(=O)c3ccc(CNc4c(N5CCC(C)CC5)c(=O)c4=O)cc3)CC2C)c1 (configuration not stated),"inconclusive: 35.5 µM [inhibitor, single point]",
COc1ccccc1C(=O)/C=C/c1ccc(N2CCCCC2)c([N+](=O)[O-])c1,"inconclusive: 22.4 µM [inhibitor, single point]",
O=C(CN1CCN(c2ccc(Cl)cc2)CC1)Nc1ccc(F)c(F)c1,,inactive: -8.09%
COc1cccc(C(=O)c2c[nH]c(C(=O)NCc3ccco3)c2)c1,"inconclusive: 28.2 µM [inhibitor, partial curve]",
CC(=O)Nc1sc2c(c1C(N)=O)CCCC2,,inactive: -2.63%
O=C(NNC(=S)Nc1ccc(F)cc1)c1ccccc1OC(F)F,"inconclusive: 12.6 µM [inhibitor, single point]",
O=C1CN(C(=O)COC(=O)CCNS(=O)(=O)c2ccc(Cl)cc2)c2ccccc2N1,,inactive: -11.7% [at 9.22 µM]
Cn1c(CCN2CCCCCC2)nc2cc(NC(=O)Nc3ccccc3)ccc21,"inconclusive: 12.6 µM [activator, partial curve]",
CN1CCN(C(=O)c2cn(-c3ccccc3)nc2-c2cccnc2)CC1,"inconclusive: 5.62 µM [activator, single point]",
O=C(CCCOc1ccccc1)Nc1nc2ccccc2[nH]1,,inactive: 2.5%
O=C(c1cc(-c2cccs2)nc2ccccc12)N1CCN(S(=O)(=O)c2cccc(F)c2)CC1,active: 0.631 µM,
O=C1[C@H]2[C@@H](C(=O)N1c1cccc3ccccc13)C1(C(=O)c3ccccc3C1=O)N1CCC[C@@H]21,"inconclusive: 35.5 µM [activator, single point]",
COCCn1nnnc1C(CC(C)C)N1CCN(C(=O)c2ccco2)CC1 (configuration not stated),,inactive: 1.32%
COC(=O)C(C(=O)Nc1ccccc1C)C1CCCC1 (configuration not stated),,inactive: 10.7%
Oc1c(Cl)cc(Cl)cc1Sc1cc(Cl)cc(Cl)c1O,active: 10 µM,
C/C(Cl)=C\Cn1c(Nc2ccc(C)cc2)nc2c1c(=O)n(C)c(=O)n2C,,inactive: -7.52%
CN=c1scc(-c2cccs2)n1/N=C/c1ccc(O)c(O)c1O,"inconclusive: 8.91 µM [activator, partial curve]",
Cn1c(C(=O)N2CCN(c3cccc(C(F)(F)F)c3)CC2)cc2sccc21,"inconclusive: 22.4 µM [inhibitor, single point]",

# Four of these compounds in another layout:
Structure (SMILES)	Potency	activity change, negative = inhibition
CC1=C(C(N)=O)C(c2ccc(Cl)cc2Cl)n2ncnc2N1 (configuration not stated)		inactive: 2.82%
Cc1cc(C)nc(N2CCC(C(=O)N3CCN(c4cc(Cl)ccc4C)CC3)CC2)n1	inconclusive: 35.5 µM [inhibitor, single point]	
CN(C)S(=O)(=O)c1cccc(C(=O)Nc2cc(Cl)cc(Cl)c2)c1	inconclusive: 35.5 µM [inhibitor, single point]	
CC1=NN(c2ccccc2)C(=O)/C1=C/N(C)C		inactive: -8.8% [at 9.22 µM]
